Our source for the binding signal values is article PMC7819943, “Rice protein-binding microarrays: a tool to detect cis-acting elements near promoter regions in rice”.

Protein sequences, listed by entry. Tags and fused reporters are not part of them.
UniProt Q0JBA9, entry or part of it: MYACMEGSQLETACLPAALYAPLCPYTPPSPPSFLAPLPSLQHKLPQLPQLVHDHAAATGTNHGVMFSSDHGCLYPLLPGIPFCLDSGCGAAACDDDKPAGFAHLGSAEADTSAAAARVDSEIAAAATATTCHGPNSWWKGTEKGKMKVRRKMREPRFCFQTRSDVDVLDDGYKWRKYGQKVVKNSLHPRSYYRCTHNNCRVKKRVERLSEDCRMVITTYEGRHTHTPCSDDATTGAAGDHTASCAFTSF

This is one part of the list.

For the assay, the target named is OsWRKY34 (Oryza sativa, UniProt Q0JBA9 1-250). The experiment in a line: protein-binding microarray (RPBM); PBS, 2% BSA, 51.3 ng/ul salmon testes DNA, 50 uM zinc acetate, 200 nM TF, 25 C, 1 h; high values mean tight binding. The settings on record: protein: recombinant; tags: N-terminal polyhistidine and DsRed monomer fusion (pET32a); label: CyDye5-dUTP incorporated in the synthesized complementary strand; 3' TTTTT single-stranded linker to array surface; dsDNA, one strand shown. Summed up: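 Binding signal is reported as fluorescence intensity per feature (arbitrary units) from an Axon 4000B scanner. Incubation used 200 nM of each Ni–NTA-purified, N-terminally polyhistidine- and DsRed-fused transcription factor from E. coli BL21-CodonPlus on a double-stranded custom Agilent array for 1 h at 25 °C, with 50 µM zinc acetate in the buffer, followed by washing.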
For “TTTTAAACATGTTTGACCGTTCGTCTTATTCAAAAAATTTCGGAGTCACCTAGTGCAG”, the binding signal is 8310 fluorescence intensity (a.u.).
To “CAACCACCACCACCACCATGCGCCGCGGCCGCCGCCGATGCGGAGTCACCTAGTGCAG” belongs 8840 fluorescence intensity (a.u.); to “GGACACACACCCACACGCGCATCCATCCATCCATCCATCCCGGAGTCACCTAGTGCAG”, 11500 fluorescence intensity (a.u.).
To “TCTTGTGTAGCTGCTCTGGCCGAATCTCGTAGTTATTAGACGGAGTCACCTAGTGCAG” belongs 8630 fluorescence intensity (a.u.); to “CGTCACCAATCCGTGGCAACTCCCTCGCACCCCGATCCCACGGAGTCACCTAGTGCAG”, 8110 fluorescence intensity (a.u.).
For “ACAGCCTTTATCTTCCTCTTTTCTTCCTCGCTTGTGGCCCCGGAGTCACCTAGTGCAG” the value was 9360 fluorescence intensity (a.u.).
Turning to “GGTGTGGGGCCCACCTGCAGCCTCACATCGGCACCAGCTGCGGAGTCACCTAGTGCAG”, the binding signal is 18600 fluorescence intensity (a.u.).
For “AACGTGTGTGTGTTTTTTATTACATAGGGCTCGGGGTCTACGGAGTCACCTAGTGCAG” the value was 9320 fluorescence intensity (a.u.).
To “GCCTGCTTCTCATCCTCCGCCGTCTCATGGGCCTCGTCCCCGGAGTCACCTAGTGCAG” belongs 12200 fluorescence intensity (a.u.); to “CCTCATCTTGTCTTTCTCGACCTTAGCATTAACTCTCTCTCGGAGTCACCTAGTGCAG”, 8360 fluorescence intensity (a.u.).
To “ACGCGTCCATGTCCATCCCGACTATAAAATCCACCACGCGCGGAGTCACCTAGTGCAG” belongs 9920 fluorescence intensity (a.u.).
Regarding “GTTCTTCTGCCTTGTCGGAAACTGCCTCCATTTCTTCACTCGGAGTCACCTAGTGCAG”, the binding signal is 9150 fluorescence intensity (a.u.).
To “CGACACTCTTACGTTGTATATCGTGCAACAGCAACTTTTTCGGAGTCACCTAGTGCAG” belongs 8810 fluorescence intensity (a.u.); to “CATTTGTAGACCAATTATTTTTCATACTTTCAGCACGTTTCGGAGTCACCTAGTGCAG”, 8120 fluorescence intensity (a.u.); to “CCCTCGGTCGCCGTTCGCCCTGGCCCGCCTGCGCCGCGCACGGAGTCACCTAGTGCAG”, 8520 fluorescence intensity (a.u.).
To “TACTTCCTCAGCTCTGTTCTCTTTGCCATTTGGAACATTACGGAGTCACCTAGTGCAG” belongs 11100 fluorescence intensity (a.u.); to “AATTGACTTTTTTATGCTAATTTTCCCTCTAATTACTTGTCGGAGTCACCTAGTGCAG”, 18400 fluorescence intensity (a.u.); to “ATACTTAGCTCATTTTTACCGGATAGTCCCCTTACTTATGCGGAGTCACCTAGTGCAG”, 8170 fluorescence intensity (a.u.).
To “ACGCCGCCGTTGCACTTCTCTGCACGCCATTGATCCGATCCGGAGTCACCTAGTGCAG” belongs 8480 fluorescence intensity (a.u.); to “CCTTTGTGAAACTTGCAACTTTACAGTCCATTGTACGACTCGGAGTCACCTAGTGCAG”, 8430 fluorescence intensity (a.u.); to “AAGACACAGCTTCAACACGTAACCTATGCACTACACACTACGGAGTCACCTAGTGCAG”, 11700 fluorescence intensity (a.u.).
Turning to “ATTCCCTTTAAACTCTCCATCTCCGTCCATCAAGCTACCACGGAGTCACCTAGTGCAG”, the binding signal was 11200 fluorescence intensity (a.u.).
For “ATCCAGAATATCGTCTCATGTGCTTTCAATTTGAAAGCTTCGGAGTCACCTAGTGCAG” the value was 8390 fluorescence intensity (a.u.).
For “CCTCTTCGTTCCGCCTCCGCTTATCCGCTCTCGGAGGCCGCGGAGTCACCTAGTGCAG” the value was 9860 fluorescence intensity (a.u.); for “GTATATATATGCGGCTGTGGTGTTTGTTGTTTTTTCTTTACGGAGTCACCTAGTGCAG”, 13500 fluorescence intensity (a.u.); for “GTGCCTCATTTGTTGACTTTGCTAATCCCCAAATCTGATTCGGAGTCACCTAGTGCAG”, 9980 fluorescence intensity (a.u.).
For “TGTAATCCCCTTTCTCCTACTGCTCTCTGGTTATTATGTGCGGAGTCACCTAGTGCAG” the value was 9620 fluorescence intensity (a.u.); for “GCCCGCGCATCCTTCGCTTGCCTCCCCACCAAGCATCACGCGGAGTCACCTAGTGCAG”, 8020 fluorescence intensity (a.u.); for “GGCGCCACCACCGCCGCATCCGCCGCCGCCGCCACCGACGCGGAGTCACCTAGTGCAG”, 8600 fluorescence intensity (a.u.).
Regarding “TTCAGTCTACTACACCTGAACTATGTTTAACTGATGTTTTCGGAGTCACCTAGTGCAG”, the binding signal was 8530 fluorescence intensity (a.u.).
To “TCCAGAAGACACCCGCCTGCTCCACTGCCGTTCCTGTCGACGGAGTCACCTAGTGCAG” belongs 9120 fluorescence intensity (a.u.).
For “CCTCAAACCAATCTGCCAATCTCTCAACCATTCCATCTCTCGGAGTCACCTAGTGCAG” the value was 9350 fluorescence intensity (a.u.).
Consider “CTATTCCAGAAATCTGTTCTTCCTCAGGGCCGTATCCACACGGAGTCACCTAGTGCAG”, for which the binding signal was 9340 fluorescence intensity (a.u.).
As to “CGTTTTACCGGCACCTGCCTGGAGAGCCATTGTCCTAGTGCGGAGTCACCTAGTGCAG”, the binding signal is 8570 fluorescence intensity (a.u.).
For “AAAATTCACAAGGCCACGCGCATCTTGTCTCGGCCAAAAACGGAGTCACCTAGTGCAG” the value was 8050 fluorescence intensity (a.u.); for “GGCTCCGCTCGCCTCGTCTCGTCCCCGTCTCGTCTCGTCTCGGAGTCACCTAGTGCAG”, 10600 fluorescence intensity (a.u.).
To “ACTAAATTGGGTTGGGGTGCCTCCTCCTTCCTTTCTTTCTCGGAGTCACCTAGTGCAG” belongs 14900 fluorescence intensity (a.u.); to “CATCGTATTCCGCGCGCACGCTTCCCAAACTACTAAACGACGGAGTCACCTAGTGCAG”, 8780 fluorescence intensity (a.u.); to “CCTTGTACCTCCCATTGTGGTCCTTTGATAGGCATGCAACCGGAGTCACCTAGTGCAG”, 8190 fluorescence intensity (a.u.).
For “GACGCGCCACACACACGCACATCTGCAGTTACTCACTCCTCGGAGTCACCTAGTGCAG” the value was 10500 fluorescence intensity (a.u.); for “GCGATCTCGCTCGCCGCTCGCTTTCATCATCATGTCCCTTCGGAGTCACCTAGTGCAG”, 10500 fluorescence intensity (a.u.); for “TTCGCGCTCTATCCTTCACCACCGCCTCCGACAACCCTATCGGAGTCACCTAGTGCAG”, 9320 fluorescence intensity (a.u.).
